# In the supplement of paper PMC8728848:
# Some of the results follow.
# B1: BSR4 (Toxoplasma gondii), Q95NL6 (protein)
# chain: MVMMGSMQQRRGGLRSNARQLLAVCMSGVVFFSSGQAVADNLLEGLLHRTLQQQVEVTSRLTVAGSDAKCDFFTPATQDSPPVSGSLTLSKGRMTATFECSATQALSISTIPTNIEQNVCDPKKTTNGTVCQFGANGSAGTEVTLKDLLETDRIVNWKVNEQREESNKSQKWSLELHNEDLPLTDKAFVVGCQATSAARGTESGKTAACKLTVNVEARASSLAENNVVTCAYGKGSNPNPVEVEMSTEKNTLTINCGSDGSLQPTTYAEEYCVADSKDVNRCSTTRFVEIFPKFLKSWWVTETQKRTSATLTIPQTDLPEADQQFLVGCVPKKTAPEDPKKDKESGTETGAPTSCTVLVTVKAASSASHASPTVQILAAASSAAA
# How the values were obtained:
# Experiment in all cases: glycan array binding signal (z-score within array); higher = stronger binding
# Details in all cases: glycan notation: IUPAC condensed, linker removed
# [1] = target: Neu5Ac(a2-3)Gal(b1-3)GlcNAc(b1-3)Gal(b1-3)GlcNAc
# Outline: (§1)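 Negative Z-scores can be read as non-binding. The Z-score is calculated within each array and then averaged across arrays of one protein sequence at different concentrations or buffers and across linkers. Arrays, 3228 in all, were curated from the Consortium for Functional Glycomics database and kept only where the protein sequence was available.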
# [2] = target: Neu5Ac(a2-3)Gal(b1-3)GlcNAc(b1-3)Gal(b1-4)GlcNAc
# Outline: as §1
# [3] = target: Neu5Ac(a2-3)Gal(b1-3)GlcNAc(b1-3)GalNAc
# Outline: as §1
# [4] = target: Neu5Ac(a2-3)Gal(b1-3)GlcNAc6S
# Outline: as §1
# [5] = target: Neu5Ac(a2-3)Gal(b1-3)[Fuc(a1-4)]GlcNAc
# Outline: as §1
# [6] = target: Neu5Ac(a2-3)Gal(b1-3)[Fuc(a1-4)]GlcNAc(b1-3)Gal(b1-3)[Fuc(a1-4)]GlcNAc
# Outline: as §1
# [7] = target: Neu5Ac(a2-3)Gal(b1-3)[Fuc(a1-4)]GlcNAc(b1-3)Gal(b1-4)[Fuc(a1-3)]GlcNAc
# Outline: as §1
# [8] = target: Neu5Ac(a2-3)Gal(b1-3)[Neu5Ac(a2-3)Gal(b1-4)]GlcNAc
# Outline: as §1
# [9] = target: Neu5Ac(a2-3)Gal(b1-3)[Neu5Ac(a2-6)]GalNAc
# Outline: as §1
# Neu5Ac(a2-3)Gal(b1-4)Glc = target: Neu5Ac(a2-3)Gal(b1-4)Glc
# Outline: as §1
# [10] = target: Neu5Ac(a2-3)Gal(b1-4)GlcNAc
# Outline: as §1
# [11] = target: Neu5Ac(a2-3)Gal(b1-4)GlcNAc(b1-2)Man(a1-3)[GlcNAc(b1-2)Man(b1-4)GlcNAc(b1-2)Man(a1-6)]Man(b1-4)GlcNAc(b1-4)GlcNAc
# Outline: as §1
# [12] = target: Neu5Ac(a2-3)Gal(b1-4)GlcNAc(b1-2)Man(a1-3)[Neu5Ac(a2-6)Gal(b1-4)GlcNAc(b1-2)Man(a1-6)]Man(b1-4)GlcNAc(b1-4)GlcNAc
# Outline: as §1
# [13] = target: Neu5Ac(a2-3)Gal(b1-4)GlcNAc(b1-3)Gal(b1-3)GlcNAc
# Outline: as §1
# [14] = target: Neu5Ac(a2-3)Gal(b1-4)GlcNAc(b1-3)Gal(b1-4)GlcNAc
# Outline: as §1
# [15] = target: Neu5Ac(a2-3)Gal(b1-4)GlcNAc(b1-3)Gal(b1-4)GlcNAc(b1-3)Gal(b1-4)GlcNAc
# Outline: as §1
# [16] = target: Neu5Ac(a2-3)Gal(b1-4)GlcNAc(b1-3)Gal(b1-4)[Fuc(a1-3)]GlcNAc
# Outline: as §1
# [17] = target: Neu5Ac(a2-3)Gal(b1-4)GlcNAc(b1-3)GalNAc
# Outline: as §1
# [18] = target: Neu5Ac(a2-3)Gal(b1-4)GlcNAc(b1-6)[Gal(b1-3)]GalNAc
# Outline: as §1
# [19] = target: Neu5Ac(a2-3)Gal(b1-4)GlcNAc(b1-6)[Neu5Ac(a2-3)Gal(b1-3)]GalNAc
# Outline: as §1
# [20] = target: Neu5Ac(a2-3)Gal(b1-4)GlcNAc6S
# Outline: as §1
# [21] = target: Neu5Ac(a2-3)Gal(b1-4)[Fuc(a1-3)]GlcNAc
# Outline: as §1
# [22] = target: Neu5Ac(a2-3)Gal(b1-4)[Fuc(a1-3)]GlcNAc(b1-3)Gal
# Outline: as §1
# [23] = target: Neu5Ac(a2-3)Gal(b1-4)[Fuc(a1-3)]GlcNAc(b1-3)Gal(b1-4)GlcNAc
# Outline: as §1
# [24] = target: Neu5Ac(a2-3)Gal(b1-4)[Fuc(a1-3)]GlcNAc(b1-3)Gal(b1-4)[Fuc(a1-3)]GlcNAc(b1-3)Gal(b1-4)[Fuc(a1-3)]GlcNAc
# Outline: as §1
# [25] = target: Neu5Ac(a2-3)Gal(b1-4)[Fuc(a1-3)]GlcNAc(b1-3)GalNAc
# Outline: as §1
# [26] = target: Neu5Ac(a2-3)Gal(b1-4)[Fuc(a1-3)]GlcNAc(b1-6)[Gal(b1-3)]GalNAc
# Outline: as §1
# [27] = target: Neu5Ac(a2-3)Gal(b1-4)[Fuc(a1-3)]GlcNAc(b1-6)[Neu5Ac(a2-3)Gal(b1-3)]GalNAc
# Outline: as §1
# [28] = target: Neu5Ac(a2-3)Gal(b1-4)[Fuc(a1-3)]GlcNAc6S
# Outline: as §1
# [29] = target: Neu5Ac(a2-3)Gal6S(b1-4)GlcNAc
# Outline: as §1
# [30] = target: Neu5Ac(a2-3)Gal6S(b1-4)[Fuc(a1-3)]GlcNAc
# Outline: as §1
# Neu5Ac(a2-3)GalNAc = target: Neu5Ac(a2-3)GalNAc
# Outline: as §1
# [31] = target: Neu5Ac(a2-3)GalNAc(b1-4)GlcNAc
# Outline: as §1
# [32] = target: Neu5Ac(a2-3)[GalNAc(b1-4)]Gal(b1-4)Glc
# Outline: as §1
# [33] = target: Neu5Ac(a2-3)[GalNAc(b1-4)]Gal(b1-4)GlcNAc
# Outline: as §1
# [34] = target: Neu5Ac(a2-3)[GalNAc(b1-4)]Gal(b1-4)GlcNAc(b1-3)GalNAc
# Outline: as §1
# [35] = target: Neu5Ac(a2-3)[Neu5Ac(a2-6)]GalNAc
# Outline: as §1
# Neu5Ac(a2-6)Gal = target: Neu5Ac(a2-6)Gal
# Outline: as §1
# Neu5Ac(a2-6)Gal(b1-4)Glc = target: Neu5Ac(a2-6)Gal(b1-4)Glc
# Outline: as §1
# [36] = target: Neu5Ac(a2-6)Gal(b1-4)GlcNAc
# Outline: as §1
binder,measurement,setting,value
B1,glycan array binding signal (z-score),[1],-0.423
same,glycan array binding signal (z-score),[2],-0.706
same,glycan array binding signal (z-score),[3],-0.487
same,glycan array binding signal (z-score),[4],0.433
same,glycan array binding signal (z-score),[5],0.295
same,glycan array binding signal (z-score),[6],-0.158
same,glycan array binding signal (z-score),[7],-0.667
same,glycan array binding signal (z-score),[8],-0.729
same,glycan array binding signal (z-score),[9],0.026
same,glycan array binding signal (z-score),Neu5Ac(a2-3)Gal(b1-4)Glc,0.026
same,glycan array binding signal (z-score),[10],-0.069
same,glycan array binding signal (z-score),[11],-0.195
same,glycan array binding signal (z-score),[12],-0.723
same,glycan array binding signal (z-score),[13],-0.355
same,glycan array binding signal (z-score),[14],-0.402
same,glycan array binding signal (z-score),[15],-0.851
same,glycan array binding signal (z-score),[16],0.289
same,glycan array binding signal (z-score),[17],0.05
same,glycan array binding signal (z-score),[18],-0.443
same,glycan array binding signal (z-score),[19],0.238
same,glycan array binding signal (z-score),[20],0.344
same,glycan array binding signal (z-score),[21],-0.74
same,glycan array binding signal (z-score),[22],-0.509
same,glycan array binding signal (z-score),[23],1.14
same,glycan array binding signal (z-score),[24],-0.175
same,glycan array binding signal (z-score),[25],3.61
same,glycan array binding signal (z-score),[26],1.73
same,glycan array binding signal (z-score),[27],0.126
same,glycan array binding signal (z-score),[28],-0.691
same,glycan array binding signal (z-score),[29],-0.227
same,glycan array binding signal (z-score),[30],-0.142
same,glycan array binding signal (z-score),Neu5Ac(a2-3)GalNAc,0.417
same,glycan array binding signal (z-score),[31],0.417
same,glycan array binding signal (z-score),[32],-0.618
same,glycan array binding signal (z-score),[33],0.277
same,glycan array binding signal (z-score),[34],-0.472
same,glycan array binding signal (z-score),[35],-0.275
same,glycan array binding signal (z-score),Neu5Ac(a2-6)Gal,0.196
same,glycan array binding signal (z-score),Neu5Ac(a2-6)Gal(b1-4)Glc,-0.449
same,glycan array binding signal (z-score),[36],0.268

# Some of the entries above in a different format.
binder | measurement | setting | value
B1 | glycan array binding signal (z-score) | [4] | 0.433
same | glycan array binding signal (z-score) | [12] | -0.723
same | glycan array binding signal (z-score) | [23] | 1.14
